# In patent publication US6087334A, “Anti-diabetic peptides” (Amylin Pharmaceuticals, Inc., priority 1998, dated 2000):
# Part of at least one peptide drawing is inferred or uncertain, most often the ends. Where a SMILES comes first, the peptide text is derived from it. Bridges are numbered along the chain shown (N, C = ends).
# Test system: gastric emptying in conscious rats
# Settings: percent of stomach contents remaining after 20 minutes
# Source text: Peptide compounds of the present invention may be evaluated for amylin agonist activity using the methods of measuring the rate of gastric emptying disclosed in, for example, Young et al., Diabetologia, 38(6):642-648 (1995). In a phenol red method, which is described in Example D below, conscious rats receive by gavage an a caloric gel containing methyl cellulose and a phenol red indicator. Twenty minutes after gavage, animals are anesthetized using halothane, the stomach exposed and clamped at the pyloric and lower esophageal sphincters, removed and opened into an alkaline solution. Stomach content may be derived from the intensity of the phenol red in the alkaline solution, measured by absorbance at a wavelength of 560 nm. In a tritiated glucose method, conscious rats are gavaged with tritiated glucose in water. […] Tritium in the plasma separated from tail blood is collected at various timepoints and detected in a beta counter. […]
# Gastric emptying was measured using a modification (Plourde et al., Life Sci. 53:857-862 (1993)) of the original method of Scarpignato et al. (Arch. Int. Pharmacodyn. Ther. 246:286-295 (1980)). […] Stomach content was derived from the intensity of the phenol red in the alkaline solution, measured by absorbance at a wavelength of 560 nm. […] In other experiments, particulate gastric contents were centrifuged to clear the solution for absorbance measurements. […]
row,SMILES,Example D % Remaining (100 μg) [%]
1,CC(C)C[C@H](NC(=O)[C@H](CCCNC(=N)N)NC(=O)[C@H](CCC(N)=O)NC(=O)[C@@H](NC(=O)[C@H](C)NC(=O)[C@@H]1CSSC[C@H](N)C(=O)N[C@@H](CC(N)=O)C(=O)N[C@@H]([C@@H](C)O)C(=O)N[C@@H](C)C(=O)N[C@@H]([C@@H](C)O)C(=O)N1)[C@@H](C)O)C(=O)N[C@@H](C)C(=O)N[C@@H](CC(N)=O)C(=O)N[C@@H](Cc1ccccc1)C(=O)N[C@@H](CC(C)C)C(=O)N[C@H](C(=O)N[C@@H](CCCNC(=N)N)C(=O)N[C@@H](CO)C(=O)N[C@@H](CO)C(=O)NCC(=O)N[C@@H](Cc1ccc(O)cc1)C(N)=O)C(C)C [Example 13] (H-CNTATCATQRLANFLVRSSGY-NH2; disulfide 1-6),69
2,CC(C)C[C@H](NC(=O)[C@H](CCCNC(=N)N)NC(=O)[C@H](CCC(N)=O)NC(=O)[C@@H](NC(=O)[C@H](C)NC(=O)[C@@H]1CSSC[C@H](NC(=O)[C@@H](N)CCCCN)C(=O)N[C@@H](CC(N)=O)C(=O)N[C@@H]([C@@H](C)O)C(=O)N[C@@H](C)C(=O)N[C@@H]([C@@H](C)O)C(=O)N1)[C@@H](C)O)C(=O)N[C@@H](C)C(=O)N[C@@H](CC(N)=O)C(=O)N[C@@H](Cc1ccccc1)C(=O)N[C@@H](CC(C)C)C(=O)N[C@H](C(=O)N[C@@H](CCCNC(=N)N)C(=O)N[C@@H](CO)C(=O)N[C@@H](CO)C(=O)NCC(=O)N[C@@H](Cc1ccc(O)cc1)C(N)=O)C(C)C [Example 14] (H-KCNTATCATQRLANFLVRSSGY-NH2; disulfide 2-7),73
